Experimental data: PubChem BioAssay AID652272 (Drosophila RNAi Screening Center, 2013)

Test: 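Finding fly genes that regulate Hedgehog signal transduction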 (primary screen)
Cells: Drosophila clone 8 (Cl8) cells
Knock-down reagent: long dsRNA against Drosophila genes
Detection: 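Firefly light from a Hedgehog-responsive ptc promoter reporter and Renilla reference light, both read on a plate reader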
Direction: firefly Hh reporter signal: higher = more ptc reporter light; Renilla reference signal: higher = more Renilla control light
Active means: 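Hit when the z-score averaged over two replicates is under -2 or over +3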
Calls: active = hit: reporter lowered or raised; inactive = not a hit
The deposit covers about 21,000 reagents; shown is an unselected part of those with a known target gene and a result. Over the whole deposit, 503 (2.4%) are marked active. 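Raw plate light values, not normalised; calls rest on replicate z-scores that were not deposited; hits include reporter decreases as well as increases.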 Reagents against one gene are numbered here. A plus sign joins genes that one reagent is predicted to hit. The record does not give: the amount of reagent, the time to read-out.

gene knocked down | reagent no. | firefly Hh reporter signal, replicate 1 | firefly Hh reporter signal, replicate 2 | firefly Hh reporter signal, replicate 3 | Renilla reference signal, replicate 1 | Renilla reference signal, replicate 2 | call
DCTN2-p50 | 1 | 98317 | 62535 | – | 3415 | 2019 | inactive
Ide | 1 | 85808 | 76247 | – | 3482 | 3064 | inactive
CG42397 | 1 | 1.30e5 | 2.69e5 | – | 5639 | 9035 | inactive
CG14312 | 1 | 4.92e5 | 75376 | – | 28317 | 1673 | inactive
CR32733 + CG32797 | 1 | 5.29e5 | 5.92e5 | 2.20e5 | 18425 | 4629 | inactive
CG9503 | 1 | 1.25e5 | 3.27e5 | – | 3122 | 13335 | inactive
caup | 1 | 60851 | 27192 | 28128 | 2996 | 1651 | inactive
Cyp313b1 | 1 | 89091 | 1.29e5 | – | 4018 | 4299 | inactive
Hsc70-4 | 1 | 51536 | 43690 | – | 2264 | 1588 | inactive
CG7910 | 1 | 87940 | 1.01e5 | – | 3064 | 3081 | inactive
CG32971 | 1 | 98666 | 1.99e5 | – | 2589 | 9445 | inactive
cg | 1 | 19061 | 3372 | – | 1366 | 637 | active
CG17199 | 1 | 4.65e5 | 95696 | – | 23669 | 2773 | inactive
CG43085 | 1 | 2.23e5 | – | – | 5589 | – | inactive
CG15629 | 1 | 94704 | 93756 | – | 2627 | 6410 | inactive
CG13085 | 1 | 94586 | 41904 | – | 2586 | 3990 | inactive
NimB1 | 1 | 73569 | 79988 | – | 3398 | 3016 | inactive
lectin-21Cb | 1 | 89604 | 91463 | – | 2280 | 2144 | inactive
CG10098 | 1 | 1.12e5 | 71424 | – | 4288 | 2656 | inactive
CG31296 | 1 | 44155 | 1.66e5 | – | 10069 | 3504 | inactive
a | 1 | 31664 | 20551 | – | 1088 | 2400 | inactive
a | 2 | 75536 | 57895 | – | 1709 | 4949 | inactive
DEF8 | 1 | 1.30e5 | 61265 | – | 4706 | 2672 | inactive
CG8841 | 1 | 60928 | 60946 | – | 2279 | 2406 | inactive
CG12020 | 1 | 64224 | 37552 | – | 2858 | 2808 | inactive
CG12011 | 1 | 1.03e5 | 71448 | – | 2887 | 5787 | inactive
CG13223 | 1 | 86752 | 61436 | – | 2168 | 4752 | inactive
Cpr67Fa1 | 1 | 64770 | 64691 | 58262 | 7169 | 4960 | inactive
Sarm | 1 | 1.15e5 | 2.61e5 | – | 2874 | 9705 | inactive
Sarm | 2 | 1.40e5 | 2.19e5 | – | 3913 | 9307 | inactive
Sarm | 3 | 59648 | 70592 | – | 5824 | 5456 | inactive
Sarm | 4 | 37904 | 61739 | – | 5041 | 4524 | inactive
Sarm | 5 | 60727 | 63478 | – | 5675 | 4747 | inactive
Sarm | 6 | 1.26e5 | 86381 | – | 5232 | 3632 | inactive
CG3699 | 1 | 91835 | 2.62e5 | – | 3146 | 10178 | inactive
CG3699 | 2 | 1.56e5 | 3.59e5 | – | 6181 | 12860 | inactive
ACC | 1 | 28995 | 11474 | – | 1108 | 1220 | active
ACC | 2 | 37968 | 28496 | – | 2121 | 1405 | inactive
CG1773 | 1 | 72394 | 71201 | – | 3852 | 3490 | inactive
Nplp4 | 1 | 1.23e5 | 1.17e5 | – | 3219 | 2172 | inactive
Rbbp5 + CG6434 (retired record) | 1 | 1.10e5 | 1.27e5 | – | 3768 | 3418 | inactive
CG11035 | 1 | 1.23e5 | 99552 | – | 4775 | 3920 | inactive
Kul | 1 | 66816 | 86107 | – | 1891 | 2695 | inactive
Pka-R2 | 1 | 1.53e5 | 79536 | – | 3386 | 5308 | inactive
Pgant5 | 1 | 82429 | 44504 | – | 3531 | 2231 | inactive
CG43193 (retired record) | 1 | 5.76e5 | 2.25e5 | – | 34528 | 4308 | inactive
Him | 1 | 55812 | 1.75e5 | – | 2124 | 7347 | inactive
CG14230 | 1 | 61484 | 79136 | – | 1431 | 2664 | inactive
Fie | 1 | 1.20e5 | 1.28e5 | – | 4836 | 4864 | inactive
thoc5 | 1 | 1.03e5 | 72723 | – | 4756 | 3077 | inactive
CG14356 | 1 | 1.02e5 | 1.26e5 | – | 3365 | 3136 | inactive
cnk | 1 | 93728 | 49489 | – | 2010 | 3803 | inactive
Efa6 | 1 | 50312 | 1.72e5 | – | 10864 | 3506 | inactive
Efa6 | 2 | 3.85e5 | 49024 | – | 19105 | 1331 | inactive
Efa6 | 3 | 3.27e5 | 49200 | – | 19299 | 1914 | inactive
ect | 1 | 57120 | 80081 | 7.46e5 | 6508 | 4320 | inactive
ect | 2 | 50348 | 72809 | 44771 | 5904 | 2604 | inactive

8 consecutive entries already listed, for reference:
gene knocked down | reagent no. | firefly Hh reporter signal, replicate 1 | firefly Hh reporter signal, replicate 2 | firefly Hh reporter signal, replicate 3 | Renilla reference signal, replicate 1 | Renilla reference signal, replicate 2 | call
CG15629 | 1 | 94704 | 93756 | – | 2627 | 6410 | inactive
CG13085 | 1 | 94586 | 41904 | – | 2586 | 3990 | inactive
NimB1 | 1 | 73569 | 79988 | – | 3398 | 3016 | inactive
lectin-21Cb | 1 | 89604 | 91463 | – | 2280 | 2144 | inactive
CG10098 | 1 | 1.12e5 | 71424 | – | 4288 | 2656 | inactive
CG31296 | 1 | 44155 | 1.66e5 | – | 10069 | 3504 | inactive
a | 1 | 31664 | 20551 | – | 1088 | 2400 | inactive
a | 2 | 75536 | 57895 | – | 1709 | 4949 | inactive
